Results from paper PMC6533289.

By UniProt entry, the sequences of proteins in these tests, tags left out.
UniProt O94763: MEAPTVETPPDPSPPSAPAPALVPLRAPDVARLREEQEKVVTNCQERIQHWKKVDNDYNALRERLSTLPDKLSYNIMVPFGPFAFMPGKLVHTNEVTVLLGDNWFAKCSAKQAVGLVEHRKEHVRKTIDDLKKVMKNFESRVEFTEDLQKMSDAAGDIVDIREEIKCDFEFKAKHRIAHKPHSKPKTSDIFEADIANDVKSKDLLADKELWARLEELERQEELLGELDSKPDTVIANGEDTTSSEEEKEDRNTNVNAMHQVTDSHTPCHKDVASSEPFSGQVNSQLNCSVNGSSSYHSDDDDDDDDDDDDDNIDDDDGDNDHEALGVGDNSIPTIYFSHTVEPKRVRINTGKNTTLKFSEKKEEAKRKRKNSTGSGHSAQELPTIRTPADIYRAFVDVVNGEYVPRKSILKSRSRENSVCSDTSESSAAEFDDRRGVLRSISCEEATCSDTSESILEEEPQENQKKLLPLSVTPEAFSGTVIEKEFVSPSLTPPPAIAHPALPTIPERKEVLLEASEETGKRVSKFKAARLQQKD
UniProt P36873: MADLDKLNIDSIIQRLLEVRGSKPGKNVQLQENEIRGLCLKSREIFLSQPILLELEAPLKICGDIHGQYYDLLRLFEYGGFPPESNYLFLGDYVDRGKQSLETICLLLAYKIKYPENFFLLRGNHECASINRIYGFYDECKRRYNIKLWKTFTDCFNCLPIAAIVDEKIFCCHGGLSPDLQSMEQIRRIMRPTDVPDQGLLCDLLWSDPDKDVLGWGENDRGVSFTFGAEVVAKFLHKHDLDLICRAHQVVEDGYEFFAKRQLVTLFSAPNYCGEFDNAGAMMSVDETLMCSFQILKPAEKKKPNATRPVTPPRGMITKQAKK
UniProt Q96MX6: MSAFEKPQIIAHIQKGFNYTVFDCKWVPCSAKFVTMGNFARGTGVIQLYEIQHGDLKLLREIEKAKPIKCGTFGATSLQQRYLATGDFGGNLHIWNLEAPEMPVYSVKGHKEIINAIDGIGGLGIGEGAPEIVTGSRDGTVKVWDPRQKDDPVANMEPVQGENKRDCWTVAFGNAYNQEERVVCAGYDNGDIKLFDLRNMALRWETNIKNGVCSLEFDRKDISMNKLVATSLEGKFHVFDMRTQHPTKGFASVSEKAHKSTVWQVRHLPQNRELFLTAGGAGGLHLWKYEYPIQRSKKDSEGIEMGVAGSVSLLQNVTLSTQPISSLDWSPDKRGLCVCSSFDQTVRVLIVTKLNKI
UniProt Q9NUG6: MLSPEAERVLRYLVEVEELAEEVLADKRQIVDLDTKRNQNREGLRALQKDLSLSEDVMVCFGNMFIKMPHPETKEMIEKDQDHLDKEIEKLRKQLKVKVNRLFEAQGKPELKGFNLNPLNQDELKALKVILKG
UniProt Q9UHV9: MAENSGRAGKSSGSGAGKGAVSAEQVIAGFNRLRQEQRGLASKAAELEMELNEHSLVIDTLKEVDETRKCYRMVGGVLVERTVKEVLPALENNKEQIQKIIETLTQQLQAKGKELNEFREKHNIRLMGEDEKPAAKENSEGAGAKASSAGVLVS
UniProt O15212: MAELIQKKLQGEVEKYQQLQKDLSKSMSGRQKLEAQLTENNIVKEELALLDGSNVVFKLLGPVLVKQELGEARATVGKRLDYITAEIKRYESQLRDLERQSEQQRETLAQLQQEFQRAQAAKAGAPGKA
UniProt Q9Y265: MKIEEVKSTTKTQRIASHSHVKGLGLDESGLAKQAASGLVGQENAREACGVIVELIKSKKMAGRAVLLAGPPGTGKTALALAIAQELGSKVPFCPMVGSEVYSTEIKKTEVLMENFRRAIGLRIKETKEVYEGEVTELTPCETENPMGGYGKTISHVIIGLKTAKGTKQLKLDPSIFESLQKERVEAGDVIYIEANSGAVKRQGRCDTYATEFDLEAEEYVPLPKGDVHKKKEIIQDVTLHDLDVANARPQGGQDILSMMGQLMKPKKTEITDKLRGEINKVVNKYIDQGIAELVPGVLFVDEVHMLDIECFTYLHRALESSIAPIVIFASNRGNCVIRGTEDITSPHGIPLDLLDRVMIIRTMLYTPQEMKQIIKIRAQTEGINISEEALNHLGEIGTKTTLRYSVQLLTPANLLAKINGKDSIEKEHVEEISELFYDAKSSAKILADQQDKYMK

Target: unconventional prefoldin RPB5 interactor (URI1) (human (endogenous in A375-P, A2058, SK-MEL-28, UACC-62)) (UniProt O94763)
Assay: condition: only DMSO control cells, without PLX4720; affinity purification with mass spectrometry; as a1, DMSO control cells only (BRAF V600E signalling not inhibited)

Row | binding | Substance
1 | no binding | PP1γ (protein phosphatase 1, catalytic subunit, gamma isoform) (from UniProt P36873 1-323)

Target: unconventional prefoldin RPB5 interactor (URI1) (human (endogenous in A375-P, A2058, SK-MEL-28, UACC-62)) (UniProt O94763)
Assay: affinity purification with mass spectrometry; endogenous URI1 immunoprecipitated (URI1 antibody coupled to Protein G Agarose, 5 mg lysate, TNN buffer, 4 h, IgG control) from A375-P cells treated 16 h with 1 μM PLX4720 or DMSO; glycine elution, trypsin digest, LC-MS/MS

Row | binding | Substance
2 | binds | WDR92 (from UniProt Q96MX6 1-357)
3 | binds | PP1γ (protein phosphatase 1, catalytic subunit, gamma isoform) (from UniProt P36873 1-323)
4 | binds | PDRG1 (from UniProt Q9NUG6 1-133)
5 | binds | PFD2 (from UniProt Q9UHV9 1-154)
6 | binds | PFD6 (from UniProt O15212 1-129)
7 | binds | RUVBL1 (from UniProt Q9Y265 1-456)

These are yes or no findings as the source states them, for the method shown. In cells and extracts the contact can be indirect. Here binding means that the protein was enriched with, or labelled near, the bait; the list need not be complete. For some of these results: No binding means not detected with the bait.
